PubChem BioAssay AID686938 | Drosophila RNAi Screening Center – 2013
Aim: 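Knock-downs reducing store-operated calcium influx in Drosophila cells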 (primary screen). Cell system: Drosophila S2R+ cells. Reagents: long dsRNA against Drosophila genes, about 0.25 µg dsRNA per well, roughly 10,000 cells. Duration: 5 days of knock-down before the calcium assay. Challenge: thapsigargin (SERCA pump blocker) to empty calcium stores; entry signal taken 4 min after adding it. Measurement: 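Duplicate raw fluo-4 intensities per well from a plate reader, at rest and four minutes after thapsigargin emptied calcium stores; entry-to-rest ratio filled for only some wells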. Scale: calcium entry signal: higher = stronger calcium signal after store depletion; entry to resting ratio: higher = more calcium entry relative to resting level; resting calcium signal: higher = higher resting calcium signal. Hit rule: 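Hit if the duplicate-averaged plate z-score for entry over resting signal is under −3; wells with weak total dye signal (Fmax z < −2) or more than 5 off-targets removed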. Meaning of the calls: active = strongly reduced calcium entry; inactive = no strong reduction.
The deposit covers about 23,000 reagents; this is a random part of those that have a named target and a result. Over the whole deposit, 75 (0.33%) got an active call. 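Raw plate signals without normalisation; calls rest on plate z-scores that were not deposited; ratio present for only 364 wells.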 Names joined by + are all predicted targets of the reagent. The record does not give: the dose of the treatment.

no.	Target gene	dsRNA	calcium entry signal, replicate 1 (fluorescence units)	calcium entry signal, replicate 2 (fluorescence units)	entry to resting ratio	resting calcium signal, replicate 1 (fluorescence units)	resting calcium signal, replicate 2 (fluorescence units)	outcome
1	Dic3	DRSC06058	4.97e7	3.90e7		2.09e7	1.69e7	inactive
2	CG3817	DRSC15515	2.58e7	2.93e7		1.30e7	1.56e7	inactive
3	pAbp	DRSC07659	2.42e7	2.47e7		1.86e7	1.69e7	active
4	CG15143	DRSC02444	5.42e7	3.64e7		2.41e7	1.79e7	inactive
5	CG7083	DRSC11136	2.59e7	3.91e7		1.26e7	1.78e7	inactive
6	Lpt	DRSC04291	4.34e7	4.32e7		2.12e7	2.09e7	inactive
7	Lpt	DRSC04515	2.62e7			2.41e7		inactive
8	Prosalpha5	DRSC07514	1.14e7	1.21e7		8.13e6	7.52e6	inactive
9	Chsy	DRSC20175	2.47e7	2.96e7		1.36e7	1.48e7	inactive
10	Chsy	DRSC20176	2.74e7	3.11e7		1.45e7	1.45e7	inactive
11	skl	DRSC10050	2.99e7	5.86e7		1.66e7	2.19e7	inactive
12	shi	DRSC20373	4.24e7	4.60e7		2.05e7	2.20e7	inactive
13	Cpr72Eb	DRSC09870	4.05e7	4.54e7		1.77e7	1.78e7	inactive
14	CG13814 (retired record)	DRSC10069	2.10e7	3.46e7		1.04e7	1.53e7	inactive
15	CG17217	DRSC02592	3.73e7	2.29e7		1.76e7	1.17e7	inactive
16	lncRNA:CR43409	DRSC01164	3.03e7	3.14e7		1.57e7	1.30e7	inactive
17	CG9776	DRSC12127	3.38e7	4.26e7		1.64e7	3.09e7	inactive
18	l(3)neo38	DRSC14946	3.26e7	4.24e7		1.75e7	1.98e7	inactive
19	l(3)neo38	DRSC16138	3.28e7	3.52e7		1.71e7	1.77e7	inactive
20	l(3)neo38	DRSC23262	2.98e7	3.41e7		1.52e7	1.43e7	inactive
21	Actbeta	DRSC17185	3.72e7	3.81e7		1.93e7	1.77e7	inactive
22	Actbeta	DRSC17217	4.10e7	6.35e7	1.9	2.17e7	2.59e7	inactive
23	Gas8	DRSC22884	3.67e7	4.45e7		2.24e7	1.83e7	inactive
24	Gpa2	DRSC21071	5.19e7	4.77e7		2.44e7	1.87e7	inactive
25	CG9733	DRSC16549	2.73e7	3.79e7		1.51e7	1.74e7	inactive
26	Trhn	DRSC08621	2.42e7	1.94e7		1.16e7	9.96e6	inactive
27	row	DRSC07076	2.13e7	2.23e7		1.05e7	1.13e7	inactive
28	row	DRSC07077	3.20e7	3.01e7		1.70e7	1.54e7	inactive
29	GLaz	DRSC07431	1.69e7	2.06e7		1.03e7	1.14e7	inactive
30	CG14402	DRSC02386	4.25e7	5.96e7		2.36e7	2.56e7	inactive
31	Taf10b	DRSC00792	3.46e7	4.20e7		1.64e7	1.69e7	inactive
32	Hsf	DRSC07443	3.41e7	3.63e7		1.59e7	1.77e7	inactive
33	SkpB	DRSC07683	2.00e7	3.82e7		1.04e7	1.58e7	inactive
34	Tango1	DRSC02127	3.47e7			2.20e7		inactive
35	Usp14	DRSC02853	5.51e7			2.71e7		inactive
36	CG7514	DRSC08597	2.49e7	3.27e7		1.18e7	1.38e7	inactive
37	Smyd4-2	DRSC10126	3.03e7	3.33e7		1.65e7	1.49e7	inactive
38	Lerp	DRSC14750	2.87e7	4.78e7		1.50e7	2.08e7	inactive
39	Lerp	DRSC14751	2.61e7	4.43e7		1.42e7	2.01e7	inactive
40	Lerp	DRSC16030	2.65e7	4.74e7		1.45e7	2.10e7	inactive
41	Lerp	DRSC16031	2.49e7	4.75e7		1.39e7	2.15e7	inactive
42	fliI	DRSC20578	2.84e7	2.80e7		1.42e7	1.50e7	inactive
43	mAChR-C	DRSC17890	3.10e7	4.27e7		1.57e7	1.92e7	inactive
44	Qsox4	DRSC14224	4.56e7	4.18e7		2.05e7	1.84e7	inactive
45	Rpt4	DRSC18713	1.29e7	1.56e7		9.98e6	1.08e7	active
46	cm + Inx7	DRSC18753	3.98e7	4.28e7		1.95e7	1.98e7	inactive
47	CG14397	DRSC02381	4.91e7	4.57e7		2.44e7	2.07e7	inactive
48	mthl9	DRSC08506	3.94e7	4.59e7		1.86e7	2.01e7	inactive
49	Vps36	DRSC09785	3.02e7	4.58e7		1.87e7	2.37e7	inactive
50	sw + Sdic4 + Sdic3 + 2 more	DRSC20696	4.61e7	5.18e7		2.46e7	2.47e7	inactive
51	CG18493	DRSC15334	3.39e7	3.98e7		4.59e7	1.73e7	inactive
52	HtrA2	DRSC16425	2.54e7	5.25e7		1.31e7	7.00e7	inactive
53	CG32202	DRSC09989	3.16e7	4.97e7		1.77e7	1.78e7	inactive
54	CG6125	DRSC15970	2.01e7	3.19e7		1.05e7	5.15e7	inactive
55	CG9030	DRSC20139	4.37e7	2.95e7		2.21e7	1.48e7	inactive
56	CG43737	DRSC19609	3.81e7	2.38e7		1.93e7	1.22e7	inactive
57	CG43737	DRSC19610	4.52e7	2.36e7		2.16e7	1.16e7	inactive
58	zpg	DRSC09702	2.90e7	4.96e7		1.37e7	2.25e7	inactive
